The text below walks through data of the supplement of paper PMC12819154, “High-throughput peptide-centric local stability assay extends protein–ligand identification to membrane proteins, tissues and bacteria” (Nature Structural & Molecular Biology, 2025).

By UniProt entry, the sequences of proteins in these tests, tags left out. Where a name states a change or a piece, a line headed by the entry shows the natural chain unless it says otherwise.
UniProt O54940: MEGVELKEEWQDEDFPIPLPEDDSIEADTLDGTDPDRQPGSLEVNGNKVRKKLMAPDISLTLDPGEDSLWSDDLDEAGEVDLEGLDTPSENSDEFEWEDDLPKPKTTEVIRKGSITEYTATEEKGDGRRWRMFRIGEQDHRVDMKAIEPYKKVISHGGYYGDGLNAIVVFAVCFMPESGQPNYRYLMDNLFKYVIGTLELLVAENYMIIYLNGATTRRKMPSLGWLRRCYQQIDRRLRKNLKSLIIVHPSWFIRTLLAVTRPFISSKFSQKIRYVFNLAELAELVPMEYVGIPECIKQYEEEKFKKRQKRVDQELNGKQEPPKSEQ
UniProt O88384: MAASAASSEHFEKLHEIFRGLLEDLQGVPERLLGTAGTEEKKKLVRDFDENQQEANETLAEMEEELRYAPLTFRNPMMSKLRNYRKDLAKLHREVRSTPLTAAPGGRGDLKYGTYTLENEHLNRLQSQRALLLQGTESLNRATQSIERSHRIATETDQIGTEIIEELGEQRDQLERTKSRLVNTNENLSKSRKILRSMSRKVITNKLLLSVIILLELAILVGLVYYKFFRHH
UniProt O54967: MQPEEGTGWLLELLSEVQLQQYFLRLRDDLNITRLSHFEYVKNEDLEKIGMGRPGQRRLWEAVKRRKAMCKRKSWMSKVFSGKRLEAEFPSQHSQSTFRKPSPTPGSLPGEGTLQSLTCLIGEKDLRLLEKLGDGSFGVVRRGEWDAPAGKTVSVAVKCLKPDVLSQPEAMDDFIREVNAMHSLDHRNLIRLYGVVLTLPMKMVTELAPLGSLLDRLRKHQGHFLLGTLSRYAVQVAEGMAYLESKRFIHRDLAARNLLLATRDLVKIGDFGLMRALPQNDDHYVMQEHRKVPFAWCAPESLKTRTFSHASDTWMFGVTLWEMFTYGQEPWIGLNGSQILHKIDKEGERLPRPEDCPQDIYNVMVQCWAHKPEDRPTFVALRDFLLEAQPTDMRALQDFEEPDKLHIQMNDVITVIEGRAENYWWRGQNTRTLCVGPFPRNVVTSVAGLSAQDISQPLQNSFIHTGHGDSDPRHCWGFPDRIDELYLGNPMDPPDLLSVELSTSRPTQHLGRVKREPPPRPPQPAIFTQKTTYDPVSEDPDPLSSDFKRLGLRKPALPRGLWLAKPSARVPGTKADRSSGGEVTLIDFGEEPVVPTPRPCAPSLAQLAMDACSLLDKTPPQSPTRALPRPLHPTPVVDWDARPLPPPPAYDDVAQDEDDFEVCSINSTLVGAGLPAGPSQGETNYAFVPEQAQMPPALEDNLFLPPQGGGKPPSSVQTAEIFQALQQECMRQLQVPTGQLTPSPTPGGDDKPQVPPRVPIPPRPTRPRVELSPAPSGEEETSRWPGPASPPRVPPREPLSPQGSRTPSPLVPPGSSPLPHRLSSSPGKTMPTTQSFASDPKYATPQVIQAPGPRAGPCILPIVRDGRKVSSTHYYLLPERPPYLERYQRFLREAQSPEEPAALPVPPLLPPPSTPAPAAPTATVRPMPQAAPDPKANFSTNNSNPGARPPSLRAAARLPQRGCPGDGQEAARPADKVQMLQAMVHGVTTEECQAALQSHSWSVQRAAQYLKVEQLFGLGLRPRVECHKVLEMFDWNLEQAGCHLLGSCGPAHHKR
UniProt O70252: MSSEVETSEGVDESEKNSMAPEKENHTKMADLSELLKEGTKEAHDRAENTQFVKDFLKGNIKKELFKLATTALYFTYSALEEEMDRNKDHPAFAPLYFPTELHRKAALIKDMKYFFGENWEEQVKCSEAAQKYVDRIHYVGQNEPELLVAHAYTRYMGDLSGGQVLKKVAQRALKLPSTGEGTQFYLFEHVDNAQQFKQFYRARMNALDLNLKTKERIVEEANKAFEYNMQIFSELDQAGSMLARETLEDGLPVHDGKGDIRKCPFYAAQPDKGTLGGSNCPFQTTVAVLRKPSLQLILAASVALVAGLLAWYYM
UniProt O54834: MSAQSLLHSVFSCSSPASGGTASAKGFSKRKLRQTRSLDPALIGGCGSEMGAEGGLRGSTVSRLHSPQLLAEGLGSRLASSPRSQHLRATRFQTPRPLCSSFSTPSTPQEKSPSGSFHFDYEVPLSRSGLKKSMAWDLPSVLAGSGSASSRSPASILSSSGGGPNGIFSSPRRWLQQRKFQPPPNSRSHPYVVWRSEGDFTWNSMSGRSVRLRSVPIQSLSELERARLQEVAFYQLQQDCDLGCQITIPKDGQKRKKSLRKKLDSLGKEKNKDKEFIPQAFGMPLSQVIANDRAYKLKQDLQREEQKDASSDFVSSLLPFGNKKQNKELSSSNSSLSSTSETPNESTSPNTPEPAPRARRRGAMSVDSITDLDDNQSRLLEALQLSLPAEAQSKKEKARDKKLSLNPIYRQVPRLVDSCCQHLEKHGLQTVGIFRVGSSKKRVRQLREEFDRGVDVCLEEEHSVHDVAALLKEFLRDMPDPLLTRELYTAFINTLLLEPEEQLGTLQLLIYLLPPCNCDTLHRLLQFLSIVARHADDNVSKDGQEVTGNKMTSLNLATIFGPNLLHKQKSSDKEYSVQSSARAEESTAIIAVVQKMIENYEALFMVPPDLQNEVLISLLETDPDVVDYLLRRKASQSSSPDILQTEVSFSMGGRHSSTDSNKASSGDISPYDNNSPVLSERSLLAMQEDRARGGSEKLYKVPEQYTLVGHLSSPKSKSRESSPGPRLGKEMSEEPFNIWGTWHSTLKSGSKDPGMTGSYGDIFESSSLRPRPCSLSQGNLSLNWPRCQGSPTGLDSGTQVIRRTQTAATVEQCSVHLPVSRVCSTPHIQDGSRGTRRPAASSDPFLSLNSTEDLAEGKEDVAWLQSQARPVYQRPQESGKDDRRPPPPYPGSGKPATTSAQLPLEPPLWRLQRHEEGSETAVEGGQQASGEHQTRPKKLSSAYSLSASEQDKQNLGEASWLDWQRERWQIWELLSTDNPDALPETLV
UniProt O70493: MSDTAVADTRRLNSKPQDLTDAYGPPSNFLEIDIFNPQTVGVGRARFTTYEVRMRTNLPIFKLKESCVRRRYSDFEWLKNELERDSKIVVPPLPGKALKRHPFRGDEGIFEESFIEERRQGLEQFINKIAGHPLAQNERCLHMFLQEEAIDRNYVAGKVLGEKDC
UniProt O70439: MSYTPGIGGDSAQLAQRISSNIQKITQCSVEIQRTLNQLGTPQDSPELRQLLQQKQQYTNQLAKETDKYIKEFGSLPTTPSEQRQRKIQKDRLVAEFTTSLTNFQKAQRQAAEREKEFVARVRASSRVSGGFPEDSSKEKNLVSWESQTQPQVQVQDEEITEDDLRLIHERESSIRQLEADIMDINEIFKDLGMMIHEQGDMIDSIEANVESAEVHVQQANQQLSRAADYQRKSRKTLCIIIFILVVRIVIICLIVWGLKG
UniProt O88492: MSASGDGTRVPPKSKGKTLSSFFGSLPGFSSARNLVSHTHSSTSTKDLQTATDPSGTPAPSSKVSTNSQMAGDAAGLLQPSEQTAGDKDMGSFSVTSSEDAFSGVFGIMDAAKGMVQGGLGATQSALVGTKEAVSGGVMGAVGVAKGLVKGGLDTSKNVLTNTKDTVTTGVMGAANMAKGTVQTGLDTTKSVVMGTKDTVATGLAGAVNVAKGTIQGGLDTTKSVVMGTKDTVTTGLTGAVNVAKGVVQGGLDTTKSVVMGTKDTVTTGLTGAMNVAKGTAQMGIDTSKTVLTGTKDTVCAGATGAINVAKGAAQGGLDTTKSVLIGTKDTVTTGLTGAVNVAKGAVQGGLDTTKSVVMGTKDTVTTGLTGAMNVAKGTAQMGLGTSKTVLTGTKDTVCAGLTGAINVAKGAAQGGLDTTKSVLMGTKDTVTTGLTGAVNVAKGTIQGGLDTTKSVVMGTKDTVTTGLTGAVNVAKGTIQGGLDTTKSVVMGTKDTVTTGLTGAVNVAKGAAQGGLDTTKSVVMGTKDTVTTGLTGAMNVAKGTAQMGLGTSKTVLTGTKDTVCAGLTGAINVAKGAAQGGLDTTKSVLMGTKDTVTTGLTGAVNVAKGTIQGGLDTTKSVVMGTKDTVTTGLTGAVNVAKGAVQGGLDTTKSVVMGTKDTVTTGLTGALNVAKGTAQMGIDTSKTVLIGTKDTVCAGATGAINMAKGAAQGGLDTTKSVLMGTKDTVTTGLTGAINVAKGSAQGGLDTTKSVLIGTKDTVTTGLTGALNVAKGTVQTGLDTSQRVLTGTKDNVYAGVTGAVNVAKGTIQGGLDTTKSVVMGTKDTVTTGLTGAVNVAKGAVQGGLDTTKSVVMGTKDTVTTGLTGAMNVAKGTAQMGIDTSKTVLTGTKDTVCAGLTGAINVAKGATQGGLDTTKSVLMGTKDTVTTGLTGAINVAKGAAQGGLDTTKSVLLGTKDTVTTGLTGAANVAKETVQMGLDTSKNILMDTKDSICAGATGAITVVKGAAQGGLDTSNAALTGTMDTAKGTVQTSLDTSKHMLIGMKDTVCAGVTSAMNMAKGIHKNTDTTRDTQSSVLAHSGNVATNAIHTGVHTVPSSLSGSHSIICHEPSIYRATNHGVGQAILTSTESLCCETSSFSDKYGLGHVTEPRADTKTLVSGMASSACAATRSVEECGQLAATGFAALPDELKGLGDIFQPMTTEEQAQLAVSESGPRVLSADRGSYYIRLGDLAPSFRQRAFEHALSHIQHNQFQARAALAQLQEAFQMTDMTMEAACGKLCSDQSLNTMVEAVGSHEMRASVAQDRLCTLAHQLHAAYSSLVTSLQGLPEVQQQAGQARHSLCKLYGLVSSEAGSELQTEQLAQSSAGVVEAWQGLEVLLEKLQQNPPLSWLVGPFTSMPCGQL
UniProt O70161: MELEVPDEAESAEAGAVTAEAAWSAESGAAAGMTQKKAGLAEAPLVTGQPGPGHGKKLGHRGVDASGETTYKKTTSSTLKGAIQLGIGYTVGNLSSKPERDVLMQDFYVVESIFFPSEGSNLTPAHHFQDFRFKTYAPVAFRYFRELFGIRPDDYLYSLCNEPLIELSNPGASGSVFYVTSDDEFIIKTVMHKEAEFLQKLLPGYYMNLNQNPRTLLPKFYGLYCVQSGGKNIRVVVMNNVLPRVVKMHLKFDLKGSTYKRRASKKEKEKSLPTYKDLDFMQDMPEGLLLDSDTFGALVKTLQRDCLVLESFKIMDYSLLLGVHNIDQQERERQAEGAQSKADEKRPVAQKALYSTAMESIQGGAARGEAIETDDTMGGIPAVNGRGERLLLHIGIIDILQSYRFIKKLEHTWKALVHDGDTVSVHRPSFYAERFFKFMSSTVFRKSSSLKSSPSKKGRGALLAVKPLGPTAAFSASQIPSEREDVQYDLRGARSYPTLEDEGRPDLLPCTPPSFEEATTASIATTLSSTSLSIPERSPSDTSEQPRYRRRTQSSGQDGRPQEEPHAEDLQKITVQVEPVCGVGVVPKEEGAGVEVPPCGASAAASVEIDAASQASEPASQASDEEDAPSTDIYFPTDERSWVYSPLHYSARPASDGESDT
UniProt O55128: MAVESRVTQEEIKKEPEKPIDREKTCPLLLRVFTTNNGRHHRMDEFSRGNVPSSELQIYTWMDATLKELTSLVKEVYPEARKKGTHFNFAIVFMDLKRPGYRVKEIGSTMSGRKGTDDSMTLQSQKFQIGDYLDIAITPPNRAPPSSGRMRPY

This is one part of the list. Most entries show no effect beyond the scatter of the controls.

Compound in the test: CN[C@@H]1C[C@H]2O[C@@](C)([C@@H]1OC)n1c3ccccc3c3c4c(c5c6ccccc6n2c5c31)C(=O)NC4 [staurosporine]
Nature of the test: log2 fold change of tryptic peptide abundance, ligand vs vehicle (limited proteolysis) (log2 ratio); higher = more trypsin-susceptible (destabilized). The settings on record: ligand concentration: 20 uM; sample: mouse liver crude lysate; replicate design: treated separately.
On to “UniProt O54940 (peptide sequence: TLLAVTRPFISSK, peptide start residue: 255)”, for which the log2 fold change was 0.443. Then “UniProt O88384 (peptide sequence: YGTYTLENEHLNR, peptide start residue: 112)”, with -0.148; and “UniProt O54967 (peptide sequence: GLWLAKPSAR, peptide start residue: 560)”, with 0.447. For the target “UniProt O70252 (peptide sequence: KCPFYAAQPDK, peptide start residue: 263)”, the log2 fold change was 0.493. Then “UniProt O88286 (peptide sequence: EFLAGAARPGLLTLAK, peptide start residue: 973)”, with 0.433; and “UniProt O54834 (peptide sequence: LSLNPIYR, peptide start residue: 403)”, with -0.348; and “UniProt O70493 (peptide sequence: IAGHPLAQNER, peptide start residue: 129)”, with -0.217. “UniProt O70439 (peptide sequence: EKEFVAR, peptide start residue: 115)”: the log2 fold change is -0.182. Then “UniProt O88492 (peptide sequence: GTIQGGLDTTK, peptide start residue: 213)”, with -0.337. Then “UniProt O70161 (peptide sequence: FMSSTVFR, peptide start residue: 438)”, with 0.375; and “UniProt O55128 (peptide sequence: VKEIGSTMSGR, peptide start residue: 103)”, with 0.152.
